Results published in paper PMC12390933.
Changes are numbered by the printed parent chain. Numbers in names are those of the source. These are yes or no findings as the source states them, for the method shown. For part of these data: Binding seen in cells or lysates may run through a third protein. Some results given as binding are weak or reduced against the parent protein; the word gives no strength. Where a sequence is shown, tags or fusion partners need not be part of it. Each block holds one binder with its values, some of them ahead of it.

What was measured:
[1] = target: UGT2B7 N1 mutant (Δ253–529), HA-tagged (UniProt P16662); assay: non-reducing, non-heated SDS-PAGE with western blot; cell lysates in RIPA buffer (50 μg) mixed with SDS sample buffer without 2-mercaptoethanol and without the heating step (90 °C, 3 min), 7.5% gel, room temperature, 70 to 150 min; western blot with anti-HA or anti-UGT2B7; SDS-stable oligomer bands, greatly decreased when the reducing agent is added
[2] = target: UGT2B7 fused with a C-terminal hemagglutinin tag (UGT2B7-HA), expressed in COS-1 cells (UniProt P16662); assay: cross-linking; living COS-1 cells 48 h after transfection treated with 1 mM DSS or DSP in PBS for 30 min, quenched with 10 mM Tris-HCl pH 7.5, then lysed; SDS-PAGE with or without reducing agent, western blot with anti-HA and anti-UGT2B7; DMSO as control
[3] = target: UGT2B7 fused with a C-terminal hemagglutinin tag (UGT2B7-HA), expressed in COS-1 cells (UniProt P16662); assay: non-reducing, non-heated SDS-PAGE with western blot; cell lysates in RIPA buffer (50 μg) mixed with SDS sample buffer without 2-mercaptoethanol and without the heating step (90 °C, 3 min), 7.5% gel, room temperature, 70 to 150 min; western blot with anti-HA or anti-UGT2B7; SDS-stable oligomer bands, greatly decreased when the reducing agent is added
[4] = target: full-length HA-tag-free UGT2B7 C127/282A (UniProt P16662); assay: as above
[5] = target: full-length HA-tag-free UGT2B7 C156A (UniProt P16662); assay: as above
[6] = target: full-length HA-tag-free UGT2B7 C282A (UniProt P16662); assay: as above
[7] = target: UGT2B7-HA expressed in HEK293 cells (UniProt P16662); assay: as above
[8] = target: full-length HA-tag-free UGT2B7 C127/156A (UniProt P16662); assay: as above
[9] = target: full-length HA-tag-free UGT2B7 C156/282A (UniProt P16662); assay: as above
[10] = target: full-length and HA-tag-free UGT2B7 (wild type) (UniProt P16662); assay: as above
[11] = target: UGT2B7-HA expressed in HepG2 cells (UniProt P16662); assay: as above
[12] = target: full-length HA-tag-free UGT2B7 C127A (UniProt P16662); assay: as above
[13] = target: UGT2B7-HA C282A mutant (WT C282A) (UniProt P16662); assay: as above
[14] = target: UGT2B7 C1 mutant (Δ24–200, TM), HA-tagged (UniProt P16662); assay: as above
[15] = target: UGT2B7 C1 C282A mutant, HA-tagged (UniProt P16662); assay: as above

B1: UGT2B7 N1 mutant (Δ253–529), HA-tagged (domain or fragment, UniProt P16662 24-252)
chain: GKVLVWAAEYSHWMNIKTILDELIQRGHEVTVLASSASILFDPNNSSALKIEIYPTSLTKTELENFIMQQIKRWSDLPKDTFWLYFSQVQEIMSIFGDITRKFCKDVVSNKKFMKKVQESRFDVIFADAIFPCSELLAELFNIPFVYSLSFSPGYTFEKHSGGFIFPPSYVPVVMSELTDQMTFMERVKNMIYVLYFDFWFEIFDMKKWDQFYSEVLGRPTTLSETMGK
binding [1]: binds

B2: UGT2B7 fused with a C-terminal hemagglutinin tag (UGT2B7-HA), expressed in COS-1 cells (enzyme, UniProt P16662 24-529)
chain: GKVLVWAAEYSHWMNIKTILDELIQRGHEVTVLASSASILFDPNNSSALKIEIYPTSLTKTELENFIMQQIKRWSDLPKDTFWLYFSQVQEIMSIFGDITRKFCKDVVSNKKFMKKVQESRFDVIFADAIFPCSELLAELFNIPFVYSLSFSPGYTFEKHSGGFIFPPSYVPVVMSELTDQMTFMERVKNMIYVLYFDFWFEIFDMKKWDQFYSEVLGRPTTLSETMGKADVWLIRNSWNFQFPYPLLPNVDFVGGLHCKPAKPLPKEMEDFVQSSGENGVVVFSLGSMVSNMTEERANVIASALAQIPQKVLWRFDGNKPDTLGLNTRLYKWIPQNDLLGHPKTRAFITHGGANGIYEAIYHGIPMVGIPLFADQPDNIAHMKARGAAVRVDFNTMSSTDLLNALKRVINDPSYKENVMKLSRIQHDQPVKPLDRAVFWIEFVMRHKGAKHLRVAAHDLTWFQYHSLDVIGFLLVCVATVIFIVTKCCLFCFWKFARKAKKGKND
binding [2]: binds | binding [3]: binds

B6: UGT2B7-HA expressed in HEK293 cells (enzyme, UniProt P16662 24-529)
chain: B2 chain
binding [7]: binds

B12: UGT2B7-HA C282A mutant (WT C282A) (enzyme, UniProt P16662 24-529)
chain: B2 chain with C259A
binding [13]: binds

B13: UGT2B7 C1 mutant (Δ24–200, TM), HA-tagged (domain or fragment, UniProt P16662)
chain: LTDQMTFMERVKNMIYVLYFDFWFEIFDMKKWDQFYSEVLGRPTTLSETMGKADVWLIRNSWNFQFPYPLLPNVDFVGGLHCKPAKPLPKEMEDFVQSSGENGVVVFSLGSMVSNMTEERANVIASALAQIPQKVLWRFDGNKPDTLGLNTRLYKWIPQNDLLGHPKTRAFITHGGANGIYEAIYHGIPMVGIPLFADQPDNIAHMKARGAAVRVDFNTMSSTDLLNALKRVINDPSYKENVMKLSRIQHDQPVKPLDRAVFWIEFVMRHKGAKHLRVAAHDLTWFQYHSLD
binding [14]: binds

B14: UGT2B7 C1 C282A mutant, HA-tagged (domain or fragment, UniProt P16662)
chain: B13 chain with C82A
binding [15]: no binding

Now from value to binder:

binding [4]: binds
B3: full-length HA-tag-free UGT2B7 C127/282A (enzyme, UniProt P16662 24-529)
chain: B2 chain with C104A, C259A

binding [5]: binds
B4: full-length HA-tag-free UGT2B7 C156A (enzyme, UniProt P16662 24-529)
chain: B2 chain with C133A

binding [6]: binds
B5: full-length HA-tag-free UGT2B7 C282A (enzyme, UniProt P16662 24-529)
chain: B2 chain with C259A

binding [8]: binds
B7: full-length HA-tag-free UGT2B7 C127/156A (enzyme, UniProt P16662 24-529)
chain: B2 chain with C104A, C133A

binding [9]: binds
B8: full-length HA-tag-free UGT2B7 C156/282A (enzyme, UniProt P16662 24-529)
chain: B2 chain with C133A, C259A

binding [10]: binds
B9: full-length and HA-tag-free UGT2B7 (wild type) (enzyme, UniProt P16662 24-529)
chain: B2 chain

binding [11]: binds
B10: UGT2B7-HA expressed in HepG2 cells (enzyme, UniProt P16662 24-529)
chain: B2 chain

binding [12]: binds
B11: full-length HA-tag-free UGT2B7 C127A (enzyme, UniProt P16662 24-529)
chain: B2 chain with C104A
